Laboratory results taken from PMC9322318.
Results are given in words; binding and its absence hold for the method and conditions named. In cells and extracts the contact can be indirect. Some results given as binding are weak or reduced against the parent protein; the word gives no strength.

The chains behind the UniProt entries cited, without tags or fusion partners.
UniProt Q09472: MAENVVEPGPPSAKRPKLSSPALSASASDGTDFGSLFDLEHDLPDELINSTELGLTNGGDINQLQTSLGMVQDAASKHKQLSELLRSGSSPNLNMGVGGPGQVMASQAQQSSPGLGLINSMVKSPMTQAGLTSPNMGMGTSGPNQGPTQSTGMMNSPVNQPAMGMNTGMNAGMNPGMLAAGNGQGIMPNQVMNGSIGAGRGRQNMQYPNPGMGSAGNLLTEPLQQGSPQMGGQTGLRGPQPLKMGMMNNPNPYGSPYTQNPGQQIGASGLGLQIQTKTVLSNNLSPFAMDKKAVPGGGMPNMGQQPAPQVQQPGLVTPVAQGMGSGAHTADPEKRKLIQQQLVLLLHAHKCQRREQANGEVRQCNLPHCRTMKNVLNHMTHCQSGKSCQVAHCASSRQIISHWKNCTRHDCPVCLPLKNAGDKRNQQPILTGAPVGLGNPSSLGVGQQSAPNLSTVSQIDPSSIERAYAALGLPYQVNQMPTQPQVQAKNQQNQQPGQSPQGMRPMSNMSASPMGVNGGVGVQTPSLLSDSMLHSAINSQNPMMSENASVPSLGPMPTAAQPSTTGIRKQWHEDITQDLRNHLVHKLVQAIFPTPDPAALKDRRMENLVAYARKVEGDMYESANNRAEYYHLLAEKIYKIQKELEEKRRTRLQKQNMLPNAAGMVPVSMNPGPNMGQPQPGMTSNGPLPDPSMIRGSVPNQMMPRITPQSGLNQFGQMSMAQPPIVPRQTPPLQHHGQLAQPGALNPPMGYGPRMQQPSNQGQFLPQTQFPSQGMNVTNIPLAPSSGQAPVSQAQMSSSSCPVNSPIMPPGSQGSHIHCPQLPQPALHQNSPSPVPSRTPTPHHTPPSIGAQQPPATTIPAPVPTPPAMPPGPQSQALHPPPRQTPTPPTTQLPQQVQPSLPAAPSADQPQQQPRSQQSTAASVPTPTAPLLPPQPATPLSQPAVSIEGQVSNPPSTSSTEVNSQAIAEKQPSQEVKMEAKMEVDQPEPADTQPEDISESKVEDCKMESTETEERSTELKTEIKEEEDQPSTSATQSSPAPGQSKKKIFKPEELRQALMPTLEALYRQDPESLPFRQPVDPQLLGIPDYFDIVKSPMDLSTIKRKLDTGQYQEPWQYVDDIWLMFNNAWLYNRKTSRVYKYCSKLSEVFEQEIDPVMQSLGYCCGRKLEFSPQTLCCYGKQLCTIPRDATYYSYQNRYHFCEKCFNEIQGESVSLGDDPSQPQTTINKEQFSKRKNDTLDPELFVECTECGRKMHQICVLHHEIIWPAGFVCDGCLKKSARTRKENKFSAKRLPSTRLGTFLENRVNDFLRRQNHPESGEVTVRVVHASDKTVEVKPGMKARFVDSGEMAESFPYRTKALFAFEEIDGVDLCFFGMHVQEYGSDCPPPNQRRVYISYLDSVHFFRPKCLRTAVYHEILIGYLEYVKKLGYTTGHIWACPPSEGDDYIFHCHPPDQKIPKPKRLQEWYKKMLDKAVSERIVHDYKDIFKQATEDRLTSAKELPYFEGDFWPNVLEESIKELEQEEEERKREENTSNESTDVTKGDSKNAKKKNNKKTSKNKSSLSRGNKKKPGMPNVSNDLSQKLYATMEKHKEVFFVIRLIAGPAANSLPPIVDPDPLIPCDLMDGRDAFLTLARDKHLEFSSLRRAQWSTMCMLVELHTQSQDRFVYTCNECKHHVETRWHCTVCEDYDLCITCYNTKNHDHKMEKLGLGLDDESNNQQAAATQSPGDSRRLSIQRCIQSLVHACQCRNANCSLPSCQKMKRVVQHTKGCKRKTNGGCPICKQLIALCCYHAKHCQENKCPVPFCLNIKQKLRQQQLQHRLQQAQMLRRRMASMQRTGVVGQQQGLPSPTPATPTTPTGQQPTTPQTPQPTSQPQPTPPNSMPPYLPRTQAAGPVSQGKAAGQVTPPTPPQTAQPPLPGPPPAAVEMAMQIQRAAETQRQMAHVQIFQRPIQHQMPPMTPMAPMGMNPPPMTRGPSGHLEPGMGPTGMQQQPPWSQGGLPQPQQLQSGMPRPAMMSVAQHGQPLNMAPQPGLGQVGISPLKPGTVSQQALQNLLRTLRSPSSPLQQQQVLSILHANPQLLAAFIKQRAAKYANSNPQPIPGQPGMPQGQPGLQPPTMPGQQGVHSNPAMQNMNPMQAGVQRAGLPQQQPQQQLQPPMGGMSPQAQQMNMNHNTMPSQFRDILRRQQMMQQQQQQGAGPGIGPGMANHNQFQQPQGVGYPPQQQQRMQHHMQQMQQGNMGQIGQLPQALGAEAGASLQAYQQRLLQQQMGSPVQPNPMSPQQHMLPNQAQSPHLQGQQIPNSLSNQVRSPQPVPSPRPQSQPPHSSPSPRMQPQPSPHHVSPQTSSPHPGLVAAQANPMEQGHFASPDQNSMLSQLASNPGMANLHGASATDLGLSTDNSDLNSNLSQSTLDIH
UniProt Q96EB6: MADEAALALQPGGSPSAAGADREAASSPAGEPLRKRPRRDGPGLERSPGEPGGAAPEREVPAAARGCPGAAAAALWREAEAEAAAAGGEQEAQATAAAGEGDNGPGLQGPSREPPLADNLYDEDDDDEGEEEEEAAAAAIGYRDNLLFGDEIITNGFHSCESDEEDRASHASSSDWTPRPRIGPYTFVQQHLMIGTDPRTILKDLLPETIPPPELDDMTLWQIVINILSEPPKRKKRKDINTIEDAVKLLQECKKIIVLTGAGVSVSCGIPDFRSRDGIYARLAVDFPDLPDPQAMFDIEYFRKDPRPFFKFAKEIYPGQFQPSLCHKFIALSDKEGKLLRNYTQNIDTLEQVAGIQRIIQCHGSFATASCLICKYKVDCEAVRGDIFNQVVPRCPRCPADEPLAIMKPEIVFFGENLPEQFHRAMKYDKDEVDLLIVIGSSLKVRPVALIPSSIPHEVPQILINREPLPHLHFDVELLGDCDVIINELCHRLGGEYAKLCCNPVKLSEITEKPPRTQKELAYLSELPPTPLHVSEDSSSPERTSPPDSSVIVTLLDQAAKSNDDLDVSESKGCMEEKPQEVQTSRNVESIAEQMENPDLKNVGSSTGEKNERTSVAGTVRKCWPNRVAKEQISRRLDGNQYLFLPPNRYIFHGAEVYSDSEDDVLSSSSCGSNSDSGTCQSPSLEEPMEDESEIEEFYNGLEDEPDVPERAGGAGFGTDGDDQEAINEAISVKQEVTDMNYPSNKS

What was measured:
[1] = target: histone acetyltransferase P300 (human (endogenous in hESC-derived chondrogenic pellets)) (UniProt Q09472); assay: co-IP; 15–20 day 14 + 14 pellets (treated with DMSO or SRT1720) fixed 1 h in 4% paraformaldehyde, ground, lysed in RIPA buffer; 100 µg lysate incubated overnight at 4°C with antibody to SIRT1 (Millipore) or to P300 (Abcam), magnetic beads 5 h at 4°C, washed 3 times in PBS; western blot for ARID5B
[2] = target: Sirtuin 1 (human (endogenous in hESC-derived chondrogenic pellets)) (UniProt Q96EB6); assay: as above

B1: AT‐rich interaction domain 5B (protein, UniProt Q14865 1-1188)
chain: MEPNSLQWVGSPCGLHGPYIFYKAFQFHLEGKPRILSLGDFFFVRCTPKDPICIAELQLLWEERTSRQLLSSSKLYFLPEDTPQGRNSDHGEDEVIAVSEKVIVKLEDLVKWVHSDFSKWRCGFHAGPVKTEALGRNGQKEALLKYRQSTLNSGLNFKDVLKEKADLGEDEEETNVIVLSYPQYCRYRSMLKRIQDKPSSILTDQFALALGGIAVVSRNPQILYCRDTFDHPTLIENESICDEFAPNLKGRPRKKKPCPQRRDSFSGVKDSNNNSDGKAVAKVKCEARSALTKPKNNHNCKKVSNEEKPKVAIGEECRADEQAFLVALYKYMKERKTPIERIPYLGFKQINLWTMFQAAQKLGGYETITARRQWKHIYDELGGNPGSTSAATCTRRHYERLILPYERFIKGEEDKPLPPIKPRKQENSSQENENKTKVSGTKRIKHEIPKSKKEKENAPKPQDAAEVSSEQEKEQETLISQKSIPEPLPAADMKKKIEGYQEFSAKPLASRVDPEKDNETDQGSNSEKVAEEAGEKGPTPPLPSAPLAPEKDSALVPGASKQPLTSPSALVDSKQESKLCCFTESPESEPQEASFPSFPTTQPPLANQNETEDDKLPAMADYIANCTVKVDQLGSDDIHNALKQTPKVLVVQSFDMFKDKDLTGPMNENHGLNYTPLLYSRGNPGIMSPLAKKKLLSQVSGASLSSSYPYGSPPPLISKKKLIARDDLCSSLSQTHHGQSTDHMAVSRPSVIQHVQSFRSKPSEERKTINDIFKHEKLSRSDPHRCSFSKHHLNPLADSYVLKQEIQEGKDKLLEKRALPHSHMPSFLADFYSSPHLHSLYRHTEHHLHNEQTSKYPSRDMYRESENSSFPSHRHQEKLHVNYLTSLHLQDKKSAAAEAPTDDQPTDLSLPKNPHKPTGKVLGLAHSTTGPQESKGISQFQVLGSQSRDCHPKACRVSPMTMSGPKKYPESLSRSGKPHHVRLENFRKMEGMVHPILHRKMSPQNIGAARPIKRSLEDLDLVIAGKKARAVSPLDPSKEVSGKEKASEQESEGSKAAHGGHSGGGSEGHKLPLSSPIFPGLYSGSLCNSGLNSRLPAGYSHSLQYLKNQTVLSPLMQPLAFHSLVMQRGIFTSPTNSQQLYRHLAAATPVGSSYGDLLHNSIYPLAAINPQAAFPSSQLSSVHPSTKL
- binding [1]: no binding
- binding [2]: binds
